Source: article PMC10163288
Some of the results follow.

B1: il10ra_site1_sap_19_mot_HHH_b2_04275_000000272_0001_20_36_H_._HHH_b1_02692_0001_0000400042_0000003_0_0001 (protein)
chain: SSSSSDIEEEVRQLLEELEEHGDPELRQRLIQAVWRLVKLAAENNDDEKLRLALEALKLASSSSS
B2: il10ra_site1_sap_25_mot_HEEHE_1893_000000002_0001_40_56_H_._43642e40158d6d50ca32f4d9c2045359_0001_0001_0000200014_0000001_0_0001 (protein)
chain: SSSSSREELHELLRLIARVFVRGDEEELEELLEEAIKIAEELNNEKAVEALRMFLENLRRLSSSS
B3: il10ra_site1_normal_mot_HHH_b1_05937_af2_000000262_0001_20_37_H_._HHH_b2_04780_af2_0001_0000200010_0000002_0 (protein)
chain: SSSSDEEEEELKRLEERIEEAIEKNDDELALRLIIELIRLAFRARDPEALRAAWELAKRIHSSSS
B4: il10ra_site1_sap_11_mot_2c1a291787c6f40772924d4e9068d803_0001_af2_000000222_0001_34_48_H_._HHH_b1_06580_af2_0001_0000500013_0000001_0_0001 (protein)
chain: SSSSDQQEELLEALARLIEQALEAGNPEQARRLIEALKLNAERLGDEEAREIVEELERLVNSSSS
B5: il10ra_site1_sap_23_mot_HHH_b1_06994_000000193_0001_40_55_H_._HHH_b2_01485_0001_0000300021_0000002_0_0001_af2pred_0001 (protein)
chain: SSSSSIREKIIELLFKAIELYANGNPEEAERLIEEAQELAEELGDPELEEAIERVERQVKSSSSS
B6: il10ra_site1_sap_24_mot_HHH_b2_03220_af2_000000223_0001_23_40_H_._HHH_b2_04722_0001_0000200012_0000001_0_0001_af2pred_0001 (protein)
chain: SSSSDEEERLAELLFEAIKRLIELGDEERARLALKALRHTAEATNDPHARELVEELEELLSSSSS
B7: il10ra_site1_sap_25_mot_HHH_b1_03314_af2_000000278_0001_42_55_H_._HHH_b2_06475_0001_0000100004_0000001_1_0001_af2pred_0001 (protein)
chain: SSSDEEVRKEVEELLEEIEELEEEDDERRMAELALKIFKLALRTGDPKVTELLEKAIELARSSSS
B8: il10ra_site1_normal_mot_HHH_b1_05185_000000011_0001_22_39_H_._HHH_b1_02309_0001_0000300043_0000001_0 (protein)
chain: SSSSSSDAEEYLELAIKFAKRVDEETARRLLRIAEQLARRHNDEELLKEIEELLEEVESSSSSSS
B9: il10ra_site1_normal_mot_HHH_b2_06979_000000158_0001_42_57_H_._HHH_b2_06735_af2_0001_0000100004_0000001_0 (protein)
chain: SSSSDAELAQEAIRIIREAVELFRNGNPEEARRLLEELREELEEAGNRLLLLNVEYLLRDLSSSS
B10: il10ra_site1_sap_19_mot_HHH_b2_02463_af2_000000222_0001_1_19_H_._HHH_b2_00103_af2_0001_0000200019_0000001_0_0001 (protein)
chain: SSSSSSSAERSVELTLKAAKQIEDEEYVRMALRFARWIAEWTNNEELRELVEKLEEELSSSSSSS
B11: il10ra_site1_sap_26_mot_HHH_b2_03039_af2_000000183_0001_1_19_H_._HHH_b2_03047_0001_0000200011_0000002_0_0001_af2pred_0001 (protein)
chain: SSSSSREAAEEAIRLSRRIIELAAEGNPEEAEKLLEEVQRLVEETKDPFVKFILELLERILSSSS
B12: il10ra_site1_sap_23_mot_HHH_b1_08133_000000195_0001_1_19_H_._HHH_b2_03796_0001_0000200017_0000001_1_0001 (protein)
chain: SSSSDEAYRLVEEAIEEALKLWRNGNPEEAQELIEEVIERLRELGNWAAVWAAEHVLRVLRSSSS
B13: il10ra_site1_normal_mot_HHH_b1_02997_000000220_0001_39_52_H_._HHH_b1_03964_0001_0000100002_0000001_1_af2pred_0001 (protein)
chain: SSSSDEEVREAIEILRRAAELHSNGNPEEAEELLERAEELAERAGNLLLLVAIRFLLKLVRSSSS
B14: il10ra_site1_normal_mot_HHH_b2_07521_000000141_0001_20_37_H_._HHH_b1_04812_0001_0000100006_0000001_0 (protein)
chain: SSSSDDEEYIRLSSRFAEFLLKEGDPRAAKILLEVARRLAEEANDPELLRELEELLEEVNSSSSS
B15: il10ra_site1_normal_mot_HHH_b1_02397_af2_000000085_0001_39_57_H_._HHH_b2_00311_0001_0000100005_0000001_1 (protein)
chain: SSSSSSDLEELLEELEQLLEEGDHERFAEVALRILRHAFRNSDPEVLQAVWRLVRELASSSSSSS
B16: il10ra_site1_normal_mot_HHH_b2_07569_000000265_0001_38_56_H_._HHH_b2_07896_0001_0000100003_0000002_0 (protein)
chain: SSSSSDEEYQEEVEELLEEAKHIEDREKALEVLLEALQLALELGDPELVQLVWEVIKRLFSSSSS
B17: il10ra_site1_sap_22_mot_HHH_b2_02022_af2_000000170_0001_1_16_H_._HHH_b1_06437_0001_0000200006_0000001_0_0001_af2pred_0001 (protein)
chain: SSSSSDEEEEEVEELLEEARKIEDEEEVRKILARAHRIASELNNPELIQKVLQVFAELMGSSSSS
B18: il10ra_site1_normal_mot_HHH_b1_06994_000000193_0001_40_55_H_._HHH_b2_00652_0001_0000100005_0000001_0 (protein)
chain: SSSSDQREELAEALERLIEQALENGDERAARFLLYSLELLAEELNDPELRELVEELRERLDSSSS
B19: il10ra_site1_normal_mot_39ab2cb694c8b9c1dc7e65c0d672c93e_0001_000000036_0001_53_65_H_._HHH_b1_00346_0001_0000900028_0000003_0 (protein)
chain: SSSSDKEENEELLERLQELIEEGDREEALRLAQEALRILVRNSDPEALQELWELVKLIAEISSSS
B20: il10ra_site1_sap_20_mot_1e76edf2fd0b5081d1d1bafe495674d8_0001_000000060_0001_52_65_H_._ems_3hM_1509_0001_0000200009_0000001_0_0001_af2pred_0001 (protein)
chain: SSSSSSSDERSVKLILRAAKRIPDPEKAKLAVRVALLSAKEANNPELEREAEEILEELSSSSSSS
B21: il10ra_site1_normal_mot_HHH_b2_00273_000000062_0001_23_39_H_._HHH_b1_01151_0001_0000400028_0000001_0 (protein)
chain: SSSSSDRVEELLEEAEELAERGNPREALRVLQEAIRFAFRLNDQELLREIWEVARLVAELSSSSS
B22: il10ra_site1_normal_mot_HHH_b2_00475_000000107_0001_44_57_H_._ems_3hM_3122_0001_0000300009_0000001_0 (protein)
chain: SSSEEEVEEIVKEAEKLAKEKNDEELERYVEIARHFVEAALKLGDKELAERVARFLLESVEDASS
B23: il10ra_site1_sap_17_mot_HHH_b2_06600_af2_000000211_0001_1_16_H_._HHH_b2_07336_0001_0000100005_0000001_0_0001 (protein)
chain: SEEEEILERLAKGDPEAERLLRELIERLEEEGDEEAVLRLLFEAVRIVQQASNPEALQVVWELLP
B24: il10ra_site1_normal_mot_HHH_b1_00137_000000000_0001_1_19_H_._HHH_b2_06740_0001_0000700018_0000001_0_af2pred_0001 (protein)
chain: SSSDLQELQRFAAEVVVELVEELGLDREQLKILLELALRLVREGFSEEEIERILREVAEELSSSS

These binders were tested against il10ra, Q13651 (assay: yeast display titration).

Apparent Kd, inactive:
B1 no binding seen
B2 no binding seen
B3 no binding seen
B4 no binding seen
B5 no binding seen
B6 no binding seen
B7 no binding seen
B8 no binding seen
B9 no binding seen
B10 no binding seen
B11 no binding seen
B12 no binding seen
B13 no binding seen
B14 > 1580 nM
B15 no binding seen
B16 no binding seen
B17 no binding seen
B18 no binding seen
B19 no binding seen
B20 no binding seen
B21 no binding seen
B22 no binding seen
B23 no binding seen
B24 no binding seen

2 entries picked at random from those above:
Apparent Kd, inactive:
B9 no binding seen
B22 no binding seen
